In patent publication US12624399B2, “P27 single-nucleotide polymorphism T2871099G as a predictor of the benefit of endocrine therapy alone or in combination with CDK inhibitors in breast cancer” (FUNDACIÓN DEL SECTOR PÚBLICO ESTATAL CENTRO NACIONAL DE …, priority 2021, dated 2026):
Entries after “also recorded” stand apart in the source; their conditions may differ. At least one compound was matched to its structure with a doubt left. Some entries share one result that the patent states for a list of compounds.

Experiments:
[1] = tested on: advanced hormone-positive breast cancer; conditions: cited from earlier work; for progression-free survival time: aromatase inhibitor plus CDK4/6 inhibitor, first line, metastatic; for increase in the disease control duration / disease control duration: hormonal inhibitors combined with the CDK inhibitor; for increase in the disease control duration: versus endocrine therapy alone; for disease control duration: in average
[2] = tested on: early, hormone-positive breast cancer; conditions: cited from earlier work
wild-type T47D cells = test: Cell cycle assay (BrdU uptake), wild-type cells; type: cell-based; conditions: double blockade: hormonal deprivation plus palbociclib
Rb = Rb phosphorylation in wild-type T47-D versus homozygous clone C1 under four treatments; type: cell-based; conditions: FBS, DCC, DCC+P, Palbo
homozygous T47D cells = test: Cell cycle assay (BrdU uptake), cells homozygous for the T2871099G SNP; type: cell-based; conditions: double blockade: hormonal deprivation plus palbociclib
[3] = tested on: early, hormone-positive breast cancer; conditions: addition of palbociclib in early disease; cited from earlier work

In the case of `CCN1CCN(Cc2ccc(Nc3ncc(F)c(-c4cc(F)c5nc(C)n(C(C)C)c5c4)n3)nc2)CC1` [abemaciclib], the progression-free survival time [1] is given as “more than 25 months”, the “increase in the disease control duration” value [1] is given as “more than 2 fold” and the disease control duration [1] is given as “more than 20 months”. The “ratio disease free survival” value ([2]; 3 years follow up, endocrine therapy combined with abemaciclib) was 88.8% and the “improvement in the outcomes” value ([2]; addition of abemaciclib to endocrine therapy) was 5%.

For `CC(=O)c1c(C)c2cnc(Nc3ccc(N4CCNCC4)cn3)nc2n(C2CCCC2)c1=O` [palbociclib], the “cell cycle (BrdU uptake)” value (wild-type T47D cells) is given as “fully suppressed; also recorded: near-complete arrest of cell cycle”, the progression-free survival time [1] is given as “more than 25 months” and the “increase in the disease control duration” value [1] is given as “more than 2 fold”. The disease control duration [1] was “more than 20 months”, the “Rb phosphorylation, clone C1 versus parental cells” value (Rb) was “Rb is always more phosphorylated in C1 than in the parental cells, unless Palbociclib is added” and the “cell cycle (BrdU uptake)” value (homozygous T47D cells) was “fully suppressed; also recorded: near-complete arrest of cell cycle”. For the same compound, the “cell cycle (BrdU uptake)” value (homozygous T47D cells; listed as Palbociclib) was “complete cell cycle arrest” and the “benefit of adding the CDK4/6 inhibitor” value [3] was “not found apparent benefit”.

For `CN(C)C(=O)c1cc2cnc(Nc3ccc(N4CCNCC4)cn3)nc2n1C1CCCC1` [ribociclib], the progression-free survival time [1] is listed as “more than 25 months”, the “increase in the disease control duration” value [1] is listed as “more than 2 fold” and the disease control duration [1] is listed as “more than 20 months”.
